{"source": "PubChem BioAssay AID602371", "about": "(National Center for Advancing Translational Sciences (NCATS), 2012)", "note": "Values joined by “and” are separate entries in the source; they are usually repeats but may differ in a detail not shown here. Equal values may be shown once. The shares of active, inactive and inconclusive entries below differ from those in the screen. Potencies beside an inconclusive call are fits to weak or partial responses and may not hold up. Active and inactive are the calls of the source. Calls follow the shape of the dose curve; as a rule, active = well fitted inhibition curve with a large enough effect; inconclusive = small, poorly fitted or top-dose-only effect; inactive = flat fitted curve, though single readings scatter."}
{"test": "qHTS Assay for Inhibitors of Bacillus subtilis Sfp phosphopantetheinyl transferase (PPTase): SAR in B subtilis 168", "conditions": "Bacillus subtilis 168 growth inhibition", "source_text": "The covalent attachment of a phosphopantetheinyl (4'-PP) arm to a variety of synthases and other proteins is a key posttranslational protein modification. The 4'-PP is installed on the proteins post-translationally from coenzyme A (CoA) on a conserved serine residue by action of phosphopantetheinyl transferase (PPTase) enzymes. Phosphopantetheinylation is essential for synthase activity, and removal of the PPTase gene precludes natural product synthesis in microorganisms, or in the case of fatty acid biosynthesis, renders the organism unviable. PPTase enzymes belong to a distinct structural superfamily. Within bacteria, these enzymes are grouped into two classes based upon primary structure, the AcpS-Type and Sfp-Type PPTases.\nSfp-type PPTases, corresponding to an activator of surfactin production in Bacillus subtilis, are responsible for modifying type I polyketide and nonribosomal peptide synthases of prokaryotes. Sfp-type PPTases are responsible for the activation of a variety of pathogen-associated virulence factors. Among these compounds are toxins such as mycolactone from Mycobacterium ulcerans, siderophores such as vibriobactin from Vibrio cholerae or mycobactin from Mycobacterium tuberculosis, as well as the mycolic acids which form the waxy cell wall of Mycobacteria. The biosyntheses of these natural products are considered attractive targets for drug design.\nIn search of small molecule Sfp-PPTase inhibitors, a fluorescence quenching assay was developed for detection of Bacillus subtilis Sfp-PPTase enzymatic activity in a miniaturized high-throughput format. The consensus ybbr acceptor peptide […] was N-terminally labeled with Black Hole Quencher-2 (BHQ-2) and used in combination with rhodamine-labeled coenzyme A as a co-substrate.\nPhosphopantetheinyl transfer is a process essential to cellular viability and maintenance. Cell-permeable and stable compounds acting as PPTase inhibitors are anticipated to be antimicrobial agents in organisms with complimenting genotypes. […] This experiment evaluated a series of test compounds for antimicrobial activity with B. subtilis 168 (genotype: acpS+ and sfp-), a strain that contains a frameshift mutation in the sfp locus and thus requires a functional AcpS gene product for viability. [Mootz HD, 2001] This strain is expected to be sensitized to cell-permeable AcpS inhibitors, and insensitive to Sfp inhibitors.\nNIH Chemical Genomics Center [NCGC]\nNIH Molecular Libraries Probe Centers Network [MLPCN]\nAssay Submitter (PI): Michale Burkart, University of California, San Diego\nBacillus subtilis 168 is maintained on lysogeny broth (LB) solidified by the addition of 1.5% w/v agar. Single colonies were used to LB medium (2 mL) and shaken overnight at 30 deg C. In the morning, this culture (100 uL) was used to seed a fresh LB medium (10 mL) and was shaken at 30 degC until the culture OD600 reached 0.5. This culture was diluted 1:100 in fresh LB medium to provide the inoculum below.\nBacterial susceptibility.\nLB medium (2 uL) is dispensed into wells of a sterile white 1536-well plate. Test compounds (23 nL) prepared as serial dilutions in DMSO are added to the plate by pintool transfer. Innoculum (2 uL) is added, the plates are covered with a vented Kalypsys assay lid and incubated at 30 deg C. After 5 h, Bac-Titer Glo (4 uL; Promega Corp, Madison, WI) is added to the plates. They are incubated 10 minutes at room temperature and then the luminescence detected in a ViewLux multimodal plate reader."}
{"smiles": "COc1ccnc(NC(=S)N2CCN(c3ccc(Cl)cc3Cl)CC2)c1", "Potency": "active: 16.7 µM"}
{"smiles": "Cc1cc(C)nc(NC(=S)N2CCN(c3ccc(F)c(F)c3F)CC2)c1", "Potency": "inconclusive: 33.2 µM [inhibitor, partial curve]"}
{"smiles": "COc1cccc(NC(=S)N2CCN(c3cc(Cl)cc(Cl)c3)CC2)n1", "Potency": "inconclusive: 11.8 µM [inhibitor, partial curve]"}
{"smiles": "CC(Cc1ccccc1)C(=O)Nc1ccc(Cl)cc1C(=O)O", "note": "(stereo unspecified)", "Potency": "inconclusive: 46.9 µM [inhibitor, partial curve]"}
{"smiles": "Cc1nc(CN(C)c2ncnc3ccc(-c4ccc5[nH]ncc5c4)cc23)cs1", "Potency": "inconclusive: 29.6 µM [inhibitor, partial curve]"}
{"smiles": "FC(F)(F)c1cccc(N2CCN(C(=S)Nc3nccc4ccccc34)CC2)c1", "Potency": "inconclusive: 1.67 µM [inhibitor, full curve] and inconclusive: 2.35 µM [inhibitor, full curve]"}
{"smiles": "Cc1ccnc(NC(=S)N2CCN(c3cccc(N(C)C)c3)CC2)c1", "Potency": "active: 46.9 µM"}
{"smiles": "Cc1ccnc(NC(=S)N2CCCc3ccc(C(F)(F)F)cc32)c1", "Potency": "inconclusive: 10.5 µM [inhibitor, full curve]"}
{"smiles": "Cc1ccnc(NC(=S)N[C@@H]2CCN(c3cccc(C(F)(F)F)c3)C2)c1", "Potency": "inconclusive: 37.3 µM [inhibitor, partial curve]"}
{"smiles": "Cc1cc(C)nc(NC(=S)N2CCN(c3ccc(Cl)cc3C(F)(F)F)CC2)c1", "Potency": "inconclusive: 37.3 µM [inhibitor, partial curve, poor fit]"}
{"smiles": "COc1cccc(NC(=S)N2CCN(c3ccc(Cl)c(Cl)c3)CC2)n1", "Potency": "inconclusive: 29.6 µM [inhibitor, partial curve]"}
{"smiles": "Cc1cc(C)nc(NC(=S)N2CC3CN(c4ccc(Cl)cc4C(F)(F)F)CC3C2)c1", "note": "(stereo unspecified)", "Potency": "active: 11.8 µM"}
{"smiles": "Cc1ccnc(N=C(N)N2CCN(c3cccc(C(F)(F)F)c3)CC2)c1", "Potency": "inconclusive: 46.9 µM [inhibitor, partial curve]"}
{"smiles": "Cc1cc(C)nc(NC(=S)N2CCN(c3ncccc3C#N)CC2)c1", "Potency": "inconclusive: 41.8 µM [inhibitor, partial curve]"}
{"smiles": "FC(F)(F)c1cc(N2CCN(C(=S)Nc3cc(Cl)ccn3)CC2)cc(C(F)(F)F)c1", "Potency": "active: 6.63 µM"}
{"smiles": "Cc1ccnc(NC(=S)N2CC3CN(c4cccc(C(F)(F)F)c4)CC3C2)c1", "note": "(stereo unspecified)", "Potency": "active: 8.35 µM"}
